# Source: the supplement of paper PMC12819154, “High-throughput peptide-centric local stability assay extends protein–ligand identification to membrane proteins, tissues and bacteria” (Nature Structural & Molecular Biology, 2025)
# The list shows a part of the results, in another mix than the full data. Most entries show no effect beyond the scatter of the controls.
# Biological target: T1, UniProt P0A9T4
# T1 sequence (whole entry): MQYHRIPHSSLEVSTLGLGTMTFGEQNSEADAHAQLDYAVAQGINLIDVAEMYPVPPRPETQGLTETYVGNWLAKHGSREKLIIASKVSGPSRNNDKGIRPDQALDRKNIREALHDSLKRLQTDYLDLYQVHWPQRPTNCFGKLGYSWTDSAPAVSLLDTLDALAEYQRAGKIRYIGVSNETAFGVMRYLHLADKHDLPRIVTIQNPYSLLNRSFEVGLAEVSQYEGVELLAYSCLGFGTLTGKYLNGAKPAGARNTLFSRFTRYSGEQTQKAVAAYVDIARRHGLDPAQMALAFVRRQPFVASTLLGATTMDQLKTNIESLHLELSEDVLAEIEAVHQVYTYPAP
# Experiment: log2 fold change of tryptic peptide abundance, ligand vs vehicle (limited proteolysis) (log2 ratio); higher = more trypsin-susceptible (destabilized)
# Conditions: peptide sequence: EALHDSLKR; peptide start residue: 112; ligand concentration: 5 mM; sample: E. coli desalted lysate; replicate design: treated before aliquoting
# Description: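 HT-PELSA: desalted E. coli K-12 BW25113 lysate (with 12 mM MgCl2) incubated with 5 mM ATP (pH 7) or water for 30 min at 25 C, then a 4 min trypsin pulse at 22 C. Peptides were quantified by DIA-MS (4 replicates). Value is the peptide log2 fold change (treated/control); negative = stabilized. Scale: negative = ligand-stabilized region.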
# 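Further: lysate desalted by size exclusion to strip endogenous ATP, peptide intensities built from DIA-NN precursor signals, and peptides missing any value discarded before comparison.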
row,SMILES,log2 fold change
1,Nc1ncnc2c1ncn2[C@@H]1O[C@H](COP(=O)(O)OP(=O)(O)OP(=O)(O)O)[C@@H](O)[C@H]1O [adenosine 5'-triphosphate],-0.61
